Results on 3 compounds are retold here after US6727278B1, “Pharmaceutically active agents that impede amyloid formation in vivo” (DMS Pharmaceutical Inc., priority 1986, dated 2004).

The series deals with human DMS. Nature of the series: In vivo assay: amyloid formation induced by intracerebral injection of human DMS with the compound, Congo Red histology. Set-up: species or system Male Wistar rats.
The mark [1] stands for this setting: in-tissue concentration 10^−5 − 10^−6M, rat cerebral cortex, human DMS co-injected.

Structures are written as SMILES.

Turning to `OCCN(CCO)c1nc(N2CCCCC2)c2nc(N(CCO)CCO)nc(N3CCCCC3)c2n1` [Persantine, 2,6-bis-(diethanolamino)-4,8-dipiperidinopyrimido-(5,4-d)-pyrimidine], the “Mean Lesion Area Examined” value (in-tissue concentration 10^−2M) is 11.0 mm^2 and the “Mean Lesion Area Examined” value under setting [1] is recorded as 9.4 mm^2.

Take `CCc1nc(N)nc(N)c1-c1ccc(Cl)cc1` [Daraprim, Pyrimethamine]: the “Mean Lesion Area Examined” value under setting [1] is 10.1 mm^2.

With `Cc1noc(NS(=O)(=O)c2ccc(N)cc2)c1C` [Gantrisin, Sulfisoxazole], the “Mean Lesion Area Examined” value runs as follows: (in-tissue concentration 10^−2M) 10.4 mm^2; under setting [1], 10.8 mm^2.
